Binding data for two molecules are collected here from paper PMC10866993.

These are yes or no findings as the source states them, for the method shown. In cells and extracts the contact can be indirect. These calls come from enrichment with a bait or labelling near it, and not all partners need be listed.

The assay deals with T1, PF3D7_0823200 (P. falciparum (endogenous in 3D7 and NF54 parasites)) (UniProt Q8IB66).
T1 sequence: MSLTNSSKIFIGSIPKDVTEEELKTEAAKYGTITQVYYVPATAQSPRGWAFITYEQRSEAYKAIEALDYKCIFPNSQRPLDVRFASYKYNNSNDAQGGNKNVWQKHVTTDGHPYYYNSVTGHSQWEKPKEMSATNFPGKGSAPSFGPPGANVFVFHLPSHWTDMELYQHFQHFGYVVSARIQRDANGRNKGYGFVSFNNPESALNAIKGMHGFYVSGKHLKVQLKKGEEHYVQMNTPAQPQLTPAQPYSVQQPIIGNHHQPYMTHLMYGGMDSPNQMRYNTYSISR
The assay can be described thus: affinity purification with mass spectrometry; custom anti-PF3D7_0823200 antibody on DNase I-treated soluble protein extract of 3D7 parasites (late asexual stages), Dynabeads Protein A, washes up to 0.5 M NaCl, MudPIT; rabbit IgG as control; three independent experiments.

B1: CUGBP Elav-like family member 1 (PF3D7_1359400) (protein, UniProt Q8IDB7 1-509)
chain: MDDHENIDINDNSSDANTANYNQDKNENTSEVNDYSKEDIEGDENLKSSKGKQENNTKSSSDKDENTIDYGNHDFPCNPAPPVPIKLFIGRVPKNIEEDQLRPIFEEYGIVNEVVIIRDKITNVHKSSAFVKMASISEADNAIRLLNNQKTLDAQLGSLQVKYASGELNKLGFPQNIESGVDQAKLFIGSLPKNITEDNIKEMFSPYGTVEEVFIMKDNSTGLGKGCSFVKFSYKEQALYAIKSLNGKKTLEGCTRPVEVRFAEPKSSKQPQIPLTLQPMQNPPHAMAPQPSISSPNNINFGNNFSVNNNYPRQVGPWKEYYSGEGRPYYYNEQTNTTQWEMPKEFETLFMNNSANMHNLSESSGPPGANLFIFHVPNEWQQTDLIQAFSPFGELLSARIATEKNTGRNRGFAFVSYDSLESAAAAISQMNGFMALNKKLKVTVKKGEEDEMKKYVNQNGVNSFQQVPRVQKAIPAQPASMQPNLAYHQNPQAQNFFYSNSNSYRCGPY
Consider B1, for which the binding entry was “binds”.

B2: CUGBP Elav-like family member 2 (PF3D7_1409800) (protein, UniProt Q8ILZ7 1-514)
chain: MSYLSNMSNMNNMNNSTQQYNNENSESPYGEARMSEQCSYQMNSPYNPAPSIPIKLFVSSIPKNLTEEDIKSIFQEYGNIQDVVFIKDKKPNVNRSNVFVRMESIFYGQKAIKDLHGKRTLCETLGPLIVKFAIGELEKYGVNMNNANENEAKLFVGSLPKEITEEELRELFNRYGNVTEVYIMKNSNGISKRCAFVNYAYKEQGIFAIQNMNGKIATENAEKPIEVRFAETKNQLQEKHLFNRSLMNPLNNNMNNMDNMNNMDNMENMDNFDNNNNNNNSSYMQSHAFKNMNMDNFNRYSMNMNFNMQNNNNNQRNNNNNNNGNNNNDNNNNNNINNNNSNGNNNNNSSSNNNSPWKQYYSKEEGRPYYHNEITGETQWQKPRKIEQSFINPINMNEITGPVGANIFIFHIPNEWIQTDLLSAFSPFGNIISAHIATERDTGRNRGFAFVSYDNVDSAINAVKYMNGFLAHKKKLKVTIKKGEEQYVQALINQRNKLNSNDARRNFMENTTNA
For the molecule B2, the binding entry is listed as “binds”.
